Assay results published in paper PMC3632592, “FGF21 Can Be Mimicked In Vitro and In Vivo by a Novel Anti-FGFR1c/β-Klotho Bispecific Protein” (PLoS ONE, 2013).

Molecular target: T1, human FGFR1c extracellular domain (human, UniProt P11362 22-376)
T1 construct: fibroblast growth factor receptor 1, c isoform (FGFR1c), human, recombinant extracellular domain; In the functional rows the receptor stood whole on transfected cells; source: purified recombinant
T1 sequence (looked up): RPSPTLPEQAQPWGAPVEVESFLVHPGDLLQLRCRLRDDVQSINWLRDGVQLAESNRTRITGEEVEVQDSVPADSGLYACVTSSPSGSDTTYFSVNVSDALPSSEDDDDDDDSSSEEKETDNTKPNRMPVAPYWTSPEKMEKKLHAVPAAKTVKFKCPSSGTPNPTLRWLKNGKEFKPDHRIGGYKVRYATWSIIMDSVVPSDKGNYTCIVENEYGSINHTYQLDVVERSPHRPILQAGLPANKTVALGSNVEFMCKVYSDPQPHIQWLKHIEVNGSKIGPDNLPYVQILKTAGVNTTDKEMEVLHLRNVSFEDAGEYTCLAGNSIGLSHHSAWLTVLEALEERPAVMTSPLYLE
Assay: ELISA; target proteins coated on a MaxiSorp 96-well plate at 20 nM overnight at 4°C; Avimers titrated in 20 mM Tris-HCl (pH 7.4), 150 mM NaCl, 1 mM CaCl2; bound Avimer detected via its N-terminal HA tag with an anti-tag antibody-HRP, TMB, OD 450 nm
Conditions: both partners purified

binding result: binds
B1: FGFR1c/β-Klotho bispecific Avimer C3209 (designed binder)
chain: CGEGLFTCRSTNICISHAWVCDGVDDCEDNSDENNCSAPASEPPGSLCGADQFRCGNGSCVPRAWRCDGVDDCGDGSDEAPEICETPTCQSNEFRCRSGRCIPQHWLCDGLNDCGDGSDESQQCSAPASEPPGSL
notes: C2987 at the N-terminus fused to C2240 (C2240 at the C-terminus) on one polypeptide chain; not shown: influenza hemagglutinin (HA) tag, N-terminal, kept
